Laboratory results reported in PubChem BioAssay AID743255 (National Center for Advancing Translational Sciences (NCATS), 2014).
Hit rate of the full screen: of about 390,000 compounds, about 910 (0.23%) were called active. This list was built around the results that the source calls inconclusive (neither active nor inactive); the mix of calls is not that of the screen. The call rests on the fitted dose curve; in most records, active means well fitted inhibition curve with a large enough effect; inconclusive means small, poorly fitted or top-dose-only effect; inactive means no such curve, though single readings can be large or run the other way. A potency beside an inconclusive call is a rough fit, not a confirmed value.

By UniProt entry, the sequences of proteins in these tests, tags left out. Where a name states a change or a piece, a line headed by the entry shows the natural chain unless it says otherwise.
UniProt O94782: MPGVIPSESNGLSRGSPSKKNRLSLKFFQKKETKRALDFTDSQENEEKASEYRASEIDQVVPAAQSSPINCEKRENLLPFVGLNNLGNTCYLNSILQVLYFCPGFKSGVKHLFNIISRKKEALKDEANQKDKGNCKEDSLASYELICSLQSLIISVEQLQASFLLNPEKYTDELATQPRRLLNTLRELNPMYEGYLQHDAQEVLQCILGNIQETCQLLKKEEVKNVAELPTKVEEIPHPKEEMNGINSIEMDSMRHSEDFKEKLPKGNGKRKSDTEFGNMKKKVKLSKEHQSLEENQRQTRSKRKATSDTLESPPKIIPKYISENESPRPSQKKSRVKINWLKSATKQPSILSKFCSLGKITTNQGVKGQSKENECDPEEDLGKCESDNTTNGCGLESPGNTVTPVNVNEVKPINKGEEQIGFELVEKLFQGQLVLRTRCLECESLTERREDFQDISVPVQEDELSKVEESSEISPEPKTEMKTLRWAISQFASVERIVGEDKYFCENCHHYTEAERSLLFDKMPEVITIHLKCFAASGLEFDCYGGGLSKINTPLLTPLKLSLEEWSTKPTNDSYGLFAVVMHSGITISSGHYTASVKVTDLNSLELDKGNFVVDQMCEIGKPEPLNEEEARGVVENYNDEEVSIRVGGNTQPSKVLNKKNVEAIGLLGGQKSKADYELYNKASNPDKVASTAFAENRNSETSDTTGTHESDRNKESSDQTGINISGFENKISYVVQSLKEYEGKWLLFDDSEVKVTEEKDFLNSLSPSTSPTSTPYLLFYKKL

The compounds below were run against Ubiquitin carboxyl-terminal hydrolase 1 (Homo sapiens) (UniProt O94782) (assay: Inhibitors of USP1/UAF1: Primary Screen). Conditions: recombinant USP1/UAF1, Ub-Rhodamine cleavage fluorescence; activity change, negative = inhibition: at 57.1 µM (top of the series).
How it was run: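 High-throughput fluorogenic screen: 1nM USP1/UAF1 complex, Ub-Rho substrate 150nM final, 50mM HEPES pH 7.8 with 0.5mM EDTA, 0.1 mg/ml BSA, 1mM TCEP and 0.01% Tween-20.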
Further: nearly all actives have a fitted effect of over 60% in size.
On the % scale 0 is the no-effect control and ±100 the full control effect; potency means the concentration at half of the fitted maximal effect.

Structure (SMILES)	activity change, negative = inhibition	Potency
CC(=O)c1cc(-c2ccc(F)cc2)n(CC(=O)NC2CCC(C)CC2)c1C (stereo not given)	inactive: -31.4%	
CCN1c2ccccc2-c2nc(SCC(=O)NCc3ccc(Cl)cc3)ncc2S1(=O)=O		inconclusive: 79.4 µM [inhibitor, partial curve, poor fit]
Cc1cc(N2CCN(C)CC2)nc2ccc(NC(=O)Nc3cccc(Cl)c3)cc12		inconclusive: 12.6 µM [inhibitor, partial curve, poor fit]
COc1ccc(N=c2oc3cc(O)ccc3cc2C(=O)NCC2CCCO2)c(OC)c1 (stereo not given)		inconclusive: 28.2 µM [inhibitor, partial curve]
Cc1ccc(C(NC(=O)C(C)C)c2cc([N+](=O)[O-])c3cccnc3c2O)cc1 (stereo not given)		inconclusive: 50.1 µM [inhibitor, partial curve, poor fit]
COc1ccc(Cl)cc1NC(=O)CN1C(=O)C(C)(C)c2cc(S(=O)(=O)N3CCCCC3)ccc21		inconclusive: 0.355 µM [inhibitor, full curve, poor fit]
C=CCn1c(COc2ccccc2F)nnc1SCCN1C(=O)c2ccccc2C1=O		inconclusive: 3.98 µM [inhibitor, single point]
CCOC(=O)c1sc2ccccc2c1S(=O)(=O)N1CCN(c2cccc(C)c2)C(C)C1 (stereo not given)		inconclusive: 0.708 µM [inhibitor, full curve, poor fit]
O=C(N/N=C/c1sc(N2CCOCC2)nc1-c1ccccc1)c1cccc(S(=O)(=O)N2CCCC2)c1		inconclusive: 35.5 µM [inhibitor, single point]
O=C(Cn1c(=O)nc(-c2ccccc2)c2cc(Cl)ccc21)N1CCN(c2ccccc2F)CC1		inconclusive: 3.98 µM [inhibitor, partial curve]
C=CCNC(=S)N1CCN(c2ncc(C(F)(F)F)cc2Cl)CC1		inconclusive: 50.1 µM [inhibitor, partial curve, poor fit]
O=C(CSc1ncc(-c2ccccc2)[nH]1)Nc1ccc(Cl)cc1	inactive: -6.85%	
O=C1S/C(=C\c2ccc(N3CCOCC3)o2)C(=O)N1Cc1ccc(F)cc1		active: 5.62 µM
Cc1ccc(CC(=O)NCc2ccc(Cl)cc2)cc1	inactive: -20.9%	
CCOc1ccc(S(=O)(=O)NCc2ccco2)c2ccccc12		inconclusive: 31.6 µM [inhibitor, partial curve]
COc1ccc(CCNC(=O)c2cnn(-c3cccc(C)c3)c2C2CCN(C(=O)OC(C)(C)C)CC2)cc1OC		inconclusive: 0.501 µM [inhibitor, full curve, poor fit]
CN(C)S(=O)(=O)N1CCN(C(=O)N2CCCCC2)CC1		inconclusive: 25.1 µM [inhibitor, partial curve]
C=CCNC(=O)c1oc2ccc(S(=O)(=O)N(CC)CC)cc2c1C	inactive: -19.7%	
CC1C(=O)N(Cc2cn(CCC3OCCO3)nn2)CCS(=O)(=O)N1Cc1ccc(-c2cccc(CO)c2)cc1 (stereo not given)		inconclusive: 0.0891 µM [inhibitor, full curve, poor fit]
CCCN(C(=O)c1cccc(S(=O)(=O)N2CCN(Cc3ccccc3)CC2)c1)C1CCS(=O)(=O)C1 (stereo not given)		inconclusive: 3.98 µM [inhibitor, full curve, poor fit]
COc1ccc(C(CNC(=O)COc2ccc(F)cc2Br)N2CCCC2)cc1 (stereo not given)		inconclusive: 5.01 µM [inhibitor, partial curve]
COc1cc(/C=C2\SC(=S)N(NC(=O)c3ccncc3)C2=O)ccc1O		inconclusive: 0.251 µM [inhibitor, full curve, poor fit]

Structure (SMILES)	activity change, negative = inhibition	Potency
NC(=O)c1ccc(Oc2cccc3cccnc23)c([N+](=O)[O-])c1	inactive: -4.8%	
COc1ccc(-c2cnc(C)o2)cc1S(=O)(=O)Nc1c(C)cc(C)cc1C	inactive: -19.2%	
CCc1cc(C(=O)Nc2sc(C)c(CC)c2C#N)no1		inconclusive: 10 µM [inhibitor, partial curve, poor fit]
CCCCOc1cccc(C(=O)Nc2cc(NC(=O)c3ccco3)ccc2OC)c1		inconclusive: 0.0316 µM [inhibitor, full curve, poor fit]
Cn1nnnc1SCC1=C(C(=O)O)N2C(=O)C(NC(=O)C3CC3c3ccccc3)C2SC1 (stereo not given)	inactive: -10.7%	
O=C1C(=C2CCCCC2)SC(=S)N1Cc1ccco1	inactive: -11.8%	
CCOc1cc(S(=O)(=O)N2CCC(Cc3ccccc3)CC2)c(OCC)cc1-n1cnnn1		inconclusive: 35.5 µM [inhibitor, single point]
Cc1cc(=O)n2cn[nH]c2n1		inconclusive: 10 µM [inhibitor, partial curve, poor fit]
C[C@H](O)C(=O)C1=Nc2c(nc(N)[nH]c2=O)NC1		inconclusive: 50.1 µM [inhibitor, partial curve, poor fit]
CCOc1ccc(OCC)c(NC(=O)C2CCN(S(=O)(=O)c3ccc4c(c3)CC(C)N4C(C)=O)CC2)c1 (stereo not given)		inactive
C/C(=N\NC(=O)CN(c1ccc(C)cc1)S(C)(=O)=O)c1cccs1	inactive: -10.3%	
Cc1ccc(C2C(C(=O)O)c3ccccc3C(=O)N2C)o1 (stereo not given)		inconclusive: 0.708 µM [inhibitor, full curve]
Cc1ccsc1C1C(C#N)=C(N)OC2=C1C(=O)CC(C)(C)C2 (stereo not given)		inconclusive: 0.398 µM [inhibitor, full curve, poor fit]
Cc1cccc(OCc2cc(=O)n3c4c(sc3n2)CCCC4)c1C	inactive: -18.9%	
Cc1cc(N/N=C/c2ccccc2Br)nc2ccccc12		inconclusive: 35.5 µM [inhibitor, partial curve, poor fit]
COc1ccc2c(c1)CCc1c(C(=O)NCCCn3ccnc3)noc1-2	inactive: -17.2%	
Cc1cc(O)c(C(c2ccccc2)N2CCN(c3ccc(F)cc3)CC2)c(=O)n1Cc1ccco1 (stereo not given)		inconclusive: 7.94 µM [inhibitor, partial curve]
C/C(=N\NC(=O)c1ccco1)c1ccc(-c2ccccc2)cc1		inconclusive: 39.8 µM [inhibitor, single point]
CN(C)c1ccc(/C=C2\N=C(c3ccc(Cl)c([N+](=O)[O-])c3)NC2=O)cc1		inconclusive: 11.2 µM [inhibitor, full curve, poor fit]
CCN1C=CC2=C(C#N)C(N)C(C#N)(C#N)C(c3ccccc3C(F)(F)F)C2C1 (stereo not given)		inconclusive: 39.8 µM [inhibitor, partial curve, poor fit]
O=C1CC(N(O)C2CC(=O)N(Cc3ccccc3)C2=O)C(=O)N1Cc1ccccc1 (stereo not given)	inactive: 1.27%	
COc1ccc(N2CCN(Cc3nc4c(c(=O)n(C)c(=O)n4C)n3C(C)C)CC2)cc1		inconclusive: 44.7 µM [inhibitor, single point]

Whole records as entered above.
Cc1ccsc1C1C(C#N)=C(N)OC2=C1C(=O)CC(C)(C)C2 (stereo not given) is listed as Potency: inconclusive: 0.398 µM [inhibitor, full curve, poor fit]
C=CCNC(=O)c1oc2ccc(S(=O)(=O)N(CC)CC)cc2c1C is listed as activity change, negative = inhibition: inactive: -19.7%
COc1ccc(C(CNC(=O)COc2ccc(F)cc2Br)N2CCCC2)cc1 (stereo not given) is listed as Potency: inconclusive: 5.01 µM [inhibitor, partial curve]
COc1cc(/C=C2\SC(=S)N(NC(=O)c3ccncc3)C2=O)ccc1O is listed as Potency: inconclusive: 0.251 µM [inhibitor, full curve, poor fit]

Next part.

Structure (SMILES)	activity change, negative = inhibition	Potency
CCCCOc1ccccc1C(=O)N(Cc1sccc1C)C1CCS(=O)(=O)C1 (stereo not given)		inconclusive: 50.1 µM [inhibitor, partial curve, poor fit]
C=CCOc1ccccc1CNn1c(C)n[nH]c1=S		inconclusive: 11.2 µM [inhibitor, partial curve, poor fit]
COc1ccc2ccccc2c1C(O)c1nccn1C (stereo not given)		inconclusive: 31.6 µM [inhibitor, partial curve, poor fit]
COc1ccc(C(=O)/C=C/c2cccs2)c(OC(=O)c2cccc([N+](=O)[O-])c2)c1	inactive: -18.1%	
COc1ccc(NC(=O)c2c(C)nn(-c3ccccc3)c2Cl)cc1		inconclusive: 0.251 µM [inhibitor, full curve]
O=c1c(C=NCCCn2ccnc2)c(-c2ccccc2)[nH]n1-c1nc2ccccc2s1		inconclusive: 5.01 µM [inhibitor, full curve, poor fit]
CCCc1cc(N2CCN(c3ccccc3F)CC2)n2cnnc2n1	inactive: -14.8%	
COc1ccccc1N1CCN(CCN2C(=O)CC3(CCCC3)CC2=O)CC1		inconclusive: 44.7 µM [inhibitor, partial curve, poor fit]
c1ccc(CN2CCOCC2)cc1		inconclusive: 0.251 µM [inhibitor, full curve, poor fit]
C=CCOC(=O)C1=C(C)N=C2SCCC(=O)N2C1c1ccc(OC(=O)c2ccco2)cc1 (stereo not given)		inconclusive: 39.8 µM [inhibitor, partial curve]
C/C(=N\NC(N)=S)c1ccc2c(c1)OCCO2	inactive: -4.66%	
COC(=O)Nc1cc(C(F)(F)F)ccc1N1CCN(c2ccccc2)CC1		inconclusive: 50.1 µM [inhibitor, single point]
COc1cc(NC(=O)CN2CCCN(Cc3cccc(F)c3)S2(=O)=O)cc(OC)c1	inactive: -7.8%	
CCOC(=O)c1c(C)oc2nc(C)nc(NCCc3ccc(C)cc3)c12	inactive: -1.33%	
CC(C)Oc1ccc(C(=O)N(Cc2ccc(N(C)C)cc2)Cc2ccco2)cc1	inactive: -18.3%	
O=c1c2ccccc2c(C=Nc2ccccc2O)c(O)n1-c1nccs1		inconclusive: 50.1 µM [inhibitor, partial curve, poor fit]
CC(=O)Nc1ccc(C(=O)OCC(=O)N2CC3(C)CC2CC(C)(C)C3)cc1 (stereo not given)		inconclusive: 39.8 µM [inhibitor, single point]
CC[C@]12c3[nH]c4cc(-c5ccco5)ccc4c3CCN1C(=O)[C@@H](CC(=O)NCc1ccco1)C[C@@H]2C(=O)N1CCN(C(=O)c2ccco2)CC1	inactive: -11.2%	
Cc1c(C)n(Cc2ccccc2)c2ccc(C(=O)N3CCN(c4ccccc4)CC3)cc12		inconclusive: 10 µM [inhibitor, partial curve, poor fit]
O=C(NCCc1ccccc1)c1ccc2c(c1)nc1n2CCOC1		inconclusive: 224 µM [inhibitor, partial curve, poor fit]
COc1ccc(N2CCN(C(=O)c3cc(=O)[nH]c4ccccc34)CC2)cc1	inactive: -7.27%	
